Measured values published in US8716260B2, “Use of S-adenosylmethionine, vitamin E, and vitamin C for the treatment of oxidative liver injury” (University of Manitoba, priority 2005, dated 2014).

Tested on: Male Sprague-Dawley rats
Assay: Basal blood glucose level and mean arterial blood pressure
Assay type: in vivo, rat

Structure (SMILES)	basal glucose level (normal rats, post atropine 0.1 mg.kg^−1) [mg %]	basal glucose level (TAA 200 rats) [mg %]
CN1[C@@H]2CC[C@H]1C[C@@H](OC(=O)C(CO)c1ccccc1)C2 (some centres unmarked) [Atropine, atropine]	110.9±2.2	
CC(=N)S [TAA, thioacetamide]		96.5±3.0
